According to PubChem BioAssay AID485298 (National Center for Advancing Translational Sciences (NCATS), 2010):
Screen size: about 320,000 compounds; about 740 (0.23%) were called active. Inconclusive results, whose numbers are uncertain, are shown with a selection of clear calls. The call rests on the fitted dose curve; in most records, active means well fitted activation curve with a large enough effect; inconclusive means small, poorly fitted or top-dose-only effect; inactive means no such curve, though single readings can be large or run the other way. A potency beside an inconclusive call is a rough fit, not a confirmed value.

Experiment: qHTS Assay for Small Molecule Inhibitors of Mitochondrial Division or Activators of Mitochondrial Fusion
Conditions: S. cerevisiae fusion-defective mutant growth rescue, CellTiterGlo 48 h; series mostly up to 46.1 µM
Text: NIH Chemical Genomics Center [NCGC] NIH Molecular Libraries Probe Production centers Network [MLPCN] MLPCN Grant: MH081279-01 Assay Submitter (PI): Jodi M. Nunnari NCGC Assay Overview: The budding yeast S. cerevisiae is a powerful system to study mitochondrial fusion. Unlike other organisms, yeast cells without functional mitochondrial DNA (mtDNA) can be propagated and studied as long as they maintain a mitochondrial compartment and are provided with a fermentable carbon source. When mitochondrial fusion is blocked in yeast, mitochondrial tubules rapidly fragment and division continues unopposed. Under conditions where fusion is compromised in mammalian cells, nearly identical changes in mitochondrial structure have been observed. Thus, these findings indicate that steady state mitochondrial structure in cells is a characteristic and specific indicator of fusion activity. Mounting evidence has pointed to a connection between mitochondrial dynamics and apoptosis in mammalian cells. These studies indicate that in mammalian cells mitochondrial dynamics are more integrated into cellular processes than in yeast cells and have evolved not only to distribute the organelle but also to aid in the regulation of cellular homeostasis. Mitochondrial fusion proteins attenuate apoptosis by inhibiting the release of cytochrome c from mitochondria, in part by controlling cristae structures. Thus, small molecules that inhibit mitochondrial […] may promote apoptosis and potentially act as novel chemotherapeutics and stimulation of apoptosis has become an attractive target of anti-cancer therapies. To identify inhibitors of mitochondrial division, we exploit the growth phenotypes of mitochondrial fusion-defective mutants. The temperature sensitive fusion alleles, such as fzo1-1 and mgm1-5, cause mitochondrial membranes to fragment in cells under non-permissive conditions and cells lose mtDNA, and are unable to grow in the presence of non-fermentable carbon source glycerol. Inhibiting mitochondrial division rescues growth. We have developed and optimized a luminescence cell viability assay in 1536 well format for the identification of inhibitors in the yeast mitochondrial fusion-defective assay.
The yeast glycerol stocks where kindly supplied by the laboratory of Dr. Jodi Nunnari, University of California, Davis. All yeast glycerol stock solutions were stored in single use aliquots at -80C. The CellTiterGlo luminescence reagent, containing luciferase and luciferin, were purchased from Promega, and the reagents were stored according to manufacturer's instructions. The Buffer components for the YPEG yeast growth medium were purchased from Sigma-Aldrich (St. Louis, MO). YPEG growth medium: 1% (w/v) yeast extract, 2% (w/v) Bacto-peptone, 3% Ethanol, 3% glycerol, 0.4mM Tryptophan, 0.36mM Adenine. qHTS Assay Protocol: 1.#Dispense 2.5 ul yeast growth medium per 1536 well plate. 2.#Transfer 23 nl per well of compound to plate. 3.#Dispense 2.5 ul yeast solution at appropriate seeding density per well. 4.#Incubate for 48 hours at 37C. 5.#Dispense 5 ul of CellTiterGlow solution per well. 6.#Incubate at ambient for 10 minutes. 7.#Read using bio-luminescence protocol on Viewlux.
Potency means the concentration at half of the fitted maximal effect.

Row | Compound | Potency
1 | CC(N)C(=O)OC(C)(C)Cc1ccc(Cl)cc1 (stereo not drawn) | inconclusive: 25.9 µM [activator, single point]
2 | c1ccc(-c2ccc(-c3n(-c4ccccn4)c4ccccc4[n+]3-c3ccccn3)cc2)cc1 | inconclusive: 25.1 µM [activator, single point]
3 | Oc1ccc2c3c1O[C@H]1c4oc5ccccc5c4C[C@@]4(O)C(C2)N(CC2CC2)CCC314 (stereo partly drawn) | inconclusive: 25.9 µM [activator, single point]
4 | Cc1nn(Cc2ccccc2Cl)c(Cl)c1C(=O)OCC(=O)NC(=O)NC1CCCCC1 | inconclusive: 20 µM [activator, single point]
5 | COC(=O)C1=C(c2ccc(-c3ccccc3)c(F)c2)C[C@@H]2CC[C@H]1N2C(=O)NCC1CC1 | active: 20 µM
6 | CSCc1nnc2n1-c1ccc(Cl)cc1C(c1ccccc1)=NC2 | inactive
7 | CC(=O)Nc1ccccc1C(=O)OCc1ccccc1F | inconclusive: 22.4 µM [activator, single point]
8 | COc1cc(/C=C/C(=O)c2c(O)n(CCc3ccccc3)c(=O)[nH]c2=O)ccc1O | inactive
9 | Cc1o[nH]c(=O)c1CC(N)C(=O)O (stereo not drawn) | inactive
10 | Cc1c(C(c2ccc(Cl)cc2Cl)c2c(O)c3ccccc3oc2=O)c(=O)n(-c2ccccc2)n1C (stereo not drawn) | inactive
11 | CCN(CCCl)Cc1ccccc1Br | inconclusive: 18.4 µM [activator, single point]
12 | CCOc1cc2c(cc1OCC)-n1cccc1C(c1ccccc1OC)NC2 (stereo not drawn) | inactive
13 | Cc1cc(O)c2c(c1)C(=O)c1cc(O)cc(O)c1C2=O | active: 2.59 µM
14 | COC(=O)C1=C(c2ccc(OC(F)(F)F)cc2)C[C@@H]2CC[C@H]1N2C(=O)NCCOc1ccc(OC)cc1 | inconclusive: 35.5 µM [activator, single point]
15 | CCOP(=O)(OCC)C(NC(=O)c1cccc(C)c1)C(Cl)(Cl)Cl (stereo not drawn) | inactive
16 | COC(=O)C1=C(c2ccccc2OCc2ccccc2)C[C@@H]2CC[C@H]1N2C(=O)NCc1ccccc1 | inconclusive: 14.1 µM [activator, single point]
17 | CCCCOP(=O)(OCCCC)C(Nc1ccccc1)c1ccc2c(c1)OCO2 (stereo not drawn) | inconclusive: 22.4 µM [activator, partial curve]
18 | Nc1ncnc2c1ncn2[C@@H]1O[C@H](COP(=O)(O)CP(=O)(O)OP(=O)(O)O)[C@@H](O)[C@H]1O | inconclusive: 18.4 µM [activator, single point]
19 | c1ccc(CCCN2CCN(CCOC(c3ccccc3)c3ccccc3)CC2)cc1 | active: 7.31 µM
20 | c1ccc2c(c1)-c1cccc3cccc-2c13 | inactive
21 | COC(=O)C1=C(c2ccc(F)cc2OCc2ccccc2)C[C@@H]2CC[C@H]1N2C(=O)NCC1CC1 | inconclusive: 20 µM [activator, single point]
22 | CCCn1c(C)c(C(=O)c2ccc3ccccc3c2)c2ccccc21 | active: 13 µM
23 | Cc1ccc(N2C(=O)NC(=O)C(CCc3ccncc3)(Cc3cccc(Cl)c3Cl)C2=O)cc1 (stereo not drawn) | inconclusive: 12.6 µM [activator, partial curve]

Fetched by structure from the entries so far:
Row | Compound | Potency
17 | CCCCOP(=O)(OCCCC)C(Nc1ccccc1)c1ccc2c(c1)OCO2 (stereo not drawn) | inconclusive: 22.4 µM [activator, partial curve]
22 | CCCn1c(C)c(C(=O)c2ccc3ccccc3c2)c2ccccc21 | active: 13 µM
4 | Cc1nn(Cc2ccccc2Cl)c(Cl)c1C(=O)OCC(=O)NC(=O)NC1CCCCC1 | inconclusive: 20 µM [activator, single point]
7 | CC(=O)Nc1ccccc1C(=O)OCc1ccccc1F | inconclusive: 22.4 µM [activator, single point]

Carrying on:

Row | Compound | Potency
24 | CCCCCn1c(=O)c(C(=O)Nc2nc3ccccc3[nH]2)c(O)c2ccccc21 | inactive
25 | O=S1(=O)N(CCN2CC=C(c3c[nH]c4cc(F)ccc34)CC2)c2cccc3c2N1CCC3 | inconclusive: 18.4 µM [activator, partial curve]
26 | Cc1cc(=O)oc2cc3c(cc12)CCCN3 | inactive
27 | C=C(COC(=O)CCC(=O)O)CC1CC(O)[C@]2(C)OC3CC4OC5C[C@]6(C)O[C@]7(C)CCC8OC9C[C@]%10(C)OC%11C(C)=CC(=O)OC%11CC%10OC9C[C@@H](C)C8OC7CC6O[C@]5(C)C/C=C\C4OC3CC2O1 (stereo partly drawn) | active: 15.8 µM
28 | CCCCOc1ccc(CC2C(=O)N(C)C(=O)N(C)C2=O)cc1 | inconclusive: 12.6 µM [activator, partial curve]
29 | Nc1ccc(CCN2CCN(c3cccc(C(F)(F)F)c3)CC2)cc1 | active: 9.2 µM
30 | O=C(NCc1ccccc1)c1cccn(Cc2cccc(Cl)c2)c1=O | inconclusive: 31.6 µM [activator, single point]
31 | CCSc1cc(C2C(C#N)=C(N)Oc3n[nH]c(C)c32)c(C)o1 (stereo not drawn) | inactive
32 | O=C(CCn1nc(-c2ccc(Cl)cc2)ccc1=O)N1CCC2(CC1)OCCO2 | inactive
33 | Cc1cccc(OP(=O)(NCc2ccccc2)Oc2cccc(C)c2)c1 | inconclusive: 28.2 µM [activator, single point]
34 | COc1ccc(CCNC(=O)c2c(N)n(CCN3CCOCC3)c3nc4ccccc4nc23)cc1 | inconclusive: 22.4 µM [activator, single point]
35 | CC(=O)c1ccc2c(c1)C1C(Cl)C(Sc3ccccc3[N+](=O)[O-])CC1C(c1ccccc1[N+](=O)[O-])N2 (stereo not drawn) | inactive
36 | CC(C)OCCCNC(=O)c1c(N)n(Cc2cccs2)c2nc3ccccc3nc12 | inconclusive: 11.2 µM [activator, partial curve]
37 | CCOP(=S)(OCC)c1ccc(N(C)C)cc1 | inactive
38 | CCCCCn1c(=O)c(C(=O)Nc2ccccn2)c(O)c2ccccc21 | inactive
39 | COC(=O)C1=C(c2ccc(F)cc2OCc2ccccc2)C[C@@H]2CC[C@H]1N2C(=O)NCc1ccc(OC)cc1 | inconclusive: 22.4 µM [activator, single point]
40 | COC(=O)C1=C(c2ccc(F)cc2OCc2ccccc2)C[C@@H]2CC[C@H]1N2C(=O)NCCc1ccc(F)cc1 | inconclusive: 11.2 µM [activator, partial curve]
41 | COc1ccccc1OCCCn1cc(C(=O)C2CC2)c2ccccc21 | inconclusive: 20 µM [activator, partial curve]
42 | CC1CCN(S(=O)(=O)c2ccc(NN=C(C#N)C#N)cc2)CC1 | inconclusive: 28.2 µM [activator, single point]
43 | CCOc1cc(-c2nc3c(C)cccn3c2NCC2CCCO2)ccc1O (stereo not drawn) | inactive
44 | COC(=O)C1=C(c2ccc(F)cc2OCc2ccccc2)C[C@@H]2CC[C@H]1N2C(=O)NCc1ccc([N+](=O)[O-])cc1 | inconclusive: 11.2 µM [activator, partial curve]
45 | CC(C)OC(=O)Nc1ccc(N=C(N)N[N+](=O)[O-])cc1 | inconclusive: 35.5 µM [activator, single point]
46 | COC(=O)C1=C(c2ccc3ccccc3c2)C[C@@H]2CC[C@H]1N2C(=O)NC1Cc2ccccc2C1 | inconclusive: 35.5 µM [activator, single point]

Row | Compound | Potency
47 | CC(=O)c1cn(CCCOc2ccccc2)c2ccccc12 | inconclusive: 14.1 µM [activator, partial curve]
48 | CCOC(=O)Cn1cc(C(=O)c2ccccc2F)c2ccccc21 | inactive
49 | O=C(CNC(=O)c1cccc(Cl)c1)Nc1ccc(Br)cc1C(=O)c1ccccc1 | inconclusive: 25.1 µM [activator, single point]
50 | C[N+]1(C)C2CCC1CC(OC(=O)c1c[nH]c3ccccc13)C2 (stereo not drawn) | inconclusive: 5.17 µM [activator, single point]
51 | NC(=O)CS(=O)C(c1ccccc1)c1ccccc1 (stereo not drawn) | inconclusive: 6.31 µM [activator, full curve, poor fit]
52 | CCCn1c(C)c(C(=O)c2cccc3ccccc23)c2ccccc21 | inconclusive: 15.8 µM [activator, single point]
53 | CCCCn1c(=O)c(C(=O)NCc2ccco2)c(O)c2ccccc21 | inconclusive: 12.6 µM [activator, partial curve]
54 | COC(=O)C1=C(c2ccccc2OCc2ccccc2)C[C@@H]2CC[C@H]1N2C(=O)NCc1ccc(N(C)C)cc1 | inconclusive: 14.1 µM [activator, single point]
55 | COc1ccccc1OCCCn1cc(C(=O)c2ccco2)c2ccccc21 | inconclusive: 20 µM [activator, single point]
56 | CN(C(=O)CNC(=O)OCc1ccccc1)c1ccc(Br)cc1C(=O)c1ccccc1Cl | active: 12.6 µM
57 | CCN1C(=O)/C(=C/c2ccc3c(c2)CCN3CCCCl)C(=O)NC1=S | inactive
58 | Cc1ccc(CN2C(=O)CN=C(c3ccccc3)c3ccccc32)cc1 | inconclusive: 20 µM [activator, partial curve]
59 | N#CSCC(=O)N1c2ccccc2CCc2ccccc21 | inactive
60 | CCC(C)N1C(=O)/C(=C\c2ccc(N3CCCCCC3)cc2)C(=O)NC1=S (stereo not drawn) | inactive
61 | COc1ccc(Cl)cc1N=Cc1c(O)n(C)c(=O)n(C)c1=O | inconclusive: 6.31 µM [activator, single point]
62 | COC(=O)C1=C(c2ccc(F)cc2OCc2ccccc2)C[C@@H]2CC[C@H]1N2C(=O)NCc1ccc(Br)cc1 | inconclusive: 3.16 µM [activator, single point]
63 | CN1C2CCC1CC(OC(=O)c1cc(Cl)cc(Cl)c1)C2 (stereo not drawn) | inactive
64 | Cc1ccc(S(=O)(=O)NP(=O)(Oc2ccccc2)Oc2ccccc2)cc1 | inactive
65 | Cc1cc(OC(=O)c2cccs2)c2c3c(c(=O)oc2c1)CCCC3 | inconclusive: 8.91 µM [activator, partial curve]
66 | COC(=O)C1=C(c2ccc(F)cc2OCc2ccccc2)C[C@@H]2CC[C@H]1N2C(=O)NCc1ccc(N(C)C)cc1 | inconclusive: 14.1 µM [activator, single point]
67 | COC(=O)C1=C(c2ccc(OC(F)(F)F)cc2)C[C@@H]2CC[C@H]1N2C(=O)NCc1cccc2ccccc12 | inconclusive: 22.4 µM [activator, single point]
68 | CCCCCCOc1ccc(CN2CCN(CCO)CC2)cc1 | inconclusive: 11.2 µM [activator, partial curve]
